In this test the target is T1, peptide 1, bio-… … (145-164) (human).
T1 sequence (peptide, N-terminal biotin): PSMTLEPNKDLRPGDTVTI
Put plainly: ELISA on biotin-labeled overlapping peptides.

These are yes or no findings as the source states them, for the method shown. Some results given as binding are weak or reduced against the parent protein; the word gives no strength.

B1: murine monoclonal antibody 147# (antibody, V domains shown)
VH: QVQLKQSGIELVRPGASVKLSCKTSGYIFTADWIYWVKQRSGQGLEWIGRIYPGVDSTYYNEKFKDKAILTADKSSSTAYMQLNSLKSEDSAVYFCARGGEVRRDFYALDYWGQGTSVTVSS
VL: NIVMTQSPESMSMSLGERVTLSCKASENVGTYVSWYQQKPEQSPKLLIYGASNRYTGVPARFTGSGSATDFTLTISSVQAEDLADYHCGQRYSYPFTFGSGTKLEIK
On to B1, for which the binding entry is “binds”.

Source of the values: US20250368740A1.
